Reference: publication PMC9579038

T1: FLAG-IRTKS (full-length IRTKS, BAIAP2L1) (human) (UniProt Q9UHR4)
T1 sequence: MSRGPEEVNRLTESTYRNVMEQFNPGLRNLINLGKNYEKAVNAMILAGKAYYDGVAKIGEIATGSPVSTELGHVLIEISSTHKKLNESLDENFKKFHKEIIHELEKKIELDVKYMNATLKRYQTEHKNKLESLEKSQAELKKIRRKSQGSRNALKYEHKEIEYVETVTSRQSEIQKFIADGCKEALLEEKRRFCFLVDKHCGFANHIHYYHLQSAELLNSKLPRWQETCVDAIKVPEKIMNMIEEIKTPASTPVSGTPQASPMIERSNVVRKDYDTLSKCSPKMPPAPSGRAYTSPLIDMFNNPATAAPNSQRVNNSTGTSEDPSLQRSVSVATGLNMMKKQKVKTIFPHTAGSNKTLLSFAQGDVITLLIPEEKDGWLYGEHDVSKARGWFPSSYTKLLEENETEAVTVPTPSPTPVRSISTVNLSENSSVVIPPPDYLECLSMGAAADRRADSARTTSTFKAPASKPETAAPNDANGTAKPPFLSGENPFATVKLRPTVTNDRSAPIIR


What was measured:
[1] = target: T1, FLAG-IRTKS (full-length IRTKS, BAIAP2L1) (human); experiment: co-IP; coexpressed in transfected cells; FLAG bait immunoprecipitated with anti-DYKDDDDK agarose beads, 2 h at 4 °C; co-IP buffer 50 mM Tris pH 7.0, 150 mM NaCl, 1 mM EDTA, 5 mM NaF, 0.5% Triton X-100; BirA*-tagged prey detected by immunoblot
FMNL2-mCherry (human) = experiment: co-IP; coexpressed in transfected cells; mCherry bait immunoprecipitated with RFP-Trap beads, 2 h at 4 °C; co-IP buffer 50 mM Tris pH 7.0, 150 mM NaCl, 1 mM EDTA, 5 mM NaF, 0.5% Triton X-100; prey detected by immunoblot for its epitope tag

Molecule | binding [1] | binding (FMNL2-mCherry (human))
FMNL2.I705A-BirA* (human) | binds | –
FMNL2.G2A-BirA* (human) | binds | –
FLAG-IRTKS (full-length IRTKS, BAIAP2L1) (protein, UniProt Q9UHR4 1-511) MSRGPEEVNRLTESTYRNVMEQFNPGLRNLINLGKNYEKAVNAMILAGKAYYDGVAKIGEIATGSPVSTELGHVLIEISSTHKKLNESLDENFKKFHKEIIHELEKKIELDVKYMNATLKRYQTEHKNKLESLEKSQAELKKIRRKSQGSRNALKYEHKEIEYVETVTSRQSEIQKFIADGCKEALLEEKRRFCFLVDKHCGFANHIHYYHLQSAELLNSKLPRWQETCVDAIKVPEKIMNMIEEIKTPASTPVSGTPQASPMIERSNVVRKDYDTLSKCSPKMPPAPSGRAYTSPLIDMFNNPATAAPNSQRVNNSTGTSEDPSLQRSVSVATGLNMMKKQKVKTIFPHTAGSNKTLLSFAQGDVITLLIPEEKDGWLYGEHDVSKARGWFPSSYTKLLEENETEAVTVPTPSPTPVRSISTVNLSENSSVVIPPPDYLECLSMGAAADRRADSARTTSTFKAPASKPETAAPNDANGTAKPPFLSGENPFATVKLRPTVTNDRSAPIIR | – | binds

No constants are given. Whether binding was seen depends on the method and setting. In cells and extracts the contact can be indirect. A result given as binding can be weak or reduced; the word gives no strength. Tags and fused reporters may be left off the sequences shown.
